{"source": "PubChem BioAssay AID1224827 (NIAID, 2016)", "purpose": "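Retest primary hits on a TNF reporter with six siRNAs per gene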 (follow-up of hits)", "cells": "RAW264.7 G9 mouse macrophage reporter clone", "reagent": "single siRNA against mouse genes, 100 nM siRNA", "timing": "siRNA for 2 days, then LPS about 16 h", "conditions": "bacterial lipopolysaccharide (LPS), 10 ng/ml, cells fixed after overnight (about 16 h) stimulation", "measurement": "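TNF promoter reporter red fluorescence in nuclei, background subtracted, normalised per plate and to non-targeting control siRNA, as z-scores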", "reading the numbers": "TNF reporter z-score, mean: higher = stronger Tnf promoter reporter signal; gene median z, three same-vendor siRNAs: higher = stronger Tnf reporter signal for the gene", "active means": "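An siRNA is called active when its mean z-score over replicates is at least +2 or at most -2; control wells get no call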", "note": "Shown is a random part of about 3,800 reagents. Over the whole deposit, about 2,200 (57%) got an active call. 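Active means a strong reporter change in either direction; calls are per siRNA, not per gene; qiagen siRNAs gave weaker effects.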 The numbers tell different reagents against one gene apart. Further read-outs or replicates are left out here. Reagent sequences are not shown."}
{"Target gene":"Klra19 (GeneID 93971)","reagent":1,"TNF reporter z-score, mean":3.53,"gene median z, three same-vendor siRNAs":-1.29,"call":"active"}
{"Target gene":"Klra19 (GeneID 93971)","reagent":2,"TNF reporter z-score, mean":-1.4,"gene median z, three same-vendor siRNAs":-1.29,"call":"inactive"}
{"Target gene":"Klra19 (GeneID 93971)","reagent":3,"TNF reporter z-score, mean":-2.55,"gene median z, three same-vendor siRNAs":-1.29,"call":"active"}
{"Target gene":"Klra19 (GeneID 93971)","reagent":4,"TNF reporter z-score, mean":1.79,"gene median z, three same-vendor siRNAs":1.13,"call":"inactive"}
{"Target gene":"Klra19 (GeneID 93971)","reagent":5,"TNF reporter z-score, mean":1.41,"gene median z, three same-vendor siRNAs":1.13,"call":"inactive"}
{"Target gene":"Klra19 (GeneID 93971)","reagent":6,"TNF reporter z-score, mean":0.39,"gene median z, three same-vendor siRNAs":1.13,"call":"inactive"}
{"Target gene":"Phox2a (GeneID 11859)","reagent":1,"TNF reporter z-score, mean":6.51,"gene median z, three same-vendor siRNAs":0.129,"call":"active"}
{"Target gene":"Phox2a (GeneID 11859)","reagent":2,"TNF reporter z-score, mean":0.129,"gene median z, three same-vendor siRNAs":0.129,"call":"inactive"}
{"Target gene":"Phox2a (GeneID 11859)","reagent":3,"TNF reporter z-score, mean":-2.05,"gene median z, three same-vendor siRNAs":0.129,"call":"active"}
{"Target gene":"Phox2a (GeneID 11859)","reagent":4,"TNF reporter z-score, mean":2.16,"gene median z, three same-vendor siRNAs":0.411,"call":"active"}
{"Target gene":"Phox2a (GeneID 11859)","reagent":5,"TNF reporter z-score, mean":1.28,"gene median z, three same-vendor siRNAs":0.411,"call":"inactive"}
{"Target gene":"Phox2a (GeneID 11859)","reagent":6,"TNF reporter z-score, mean":-0.727,"gene median z, three same-vendor siRNAs":0.411,"call":"inactive"}
{"Target gene":"C730034F03Rik (GeneID 105246016)","reagent":1,"TNF reporter z-score, mean":0.381,"gene median z, three same-vendor siRNAs":-2.43,"call":"inactive"}
{"Target gene":"C730034F03Rik (GeneID 105246016)","reagent":2,"TNF reporter z-score, mean":-3.31,"gene median z, three same-vendor siRNAs":-2.43,"call":"active"}
{"Target gene":"C730034F03Rik (GeneID 105246016)","reagent":3,"TNF reporter z-score, mean":-3.81,"gene median z, three same-vendor siRNAs":-2.43,"call":"active"}
{"Target gene":"C730034F03Rik (GeneID 105246016)","reagent":4,"TNF reporter z-score, mean":4.11,"gene median z, three same-vendor siRNAs":0.642,"call":"active"}
{"Target gene":"C730034F03Rik (GeneID 105246016)","reagent":5,"TNF reporter z-score, mean":1.34,"gene median z, three same-vendor siRNAs":0.642,"call":"inactive"}
{"Target gene":"C730034F03Rik (GeneID 105246016)","reagent":6,"TNF reporter z-score, mean":-1.72,"gene median z, three same-vendor siRNAs":0.642,"call":"inactive"}
{"Target gene":"Tnfrsf8 (GeneID 21941)","reagent":1,"TNF reporter z-score, mean":0.417,"gene median z, three same-vendor siRNAs":-1.42,"call":"inactive"}
{"Target gene":"Tnfrsf8 (GeneID 21941)","reagent":2,"TNF reporter z-score, mean":-1.42,"gene median z, three same-vendor siRNAs":-1.42,"call":"inactive"}
{"Target gene":"Tnfrsf8 (GeneID 21941)","reagent":3,"TNF reporter z-score, mean":-5.74,"gene median z, three same-vendor siRNAs":-1.42,"call":"active"}
{"Target gene":"Tnfrsf8 (GeneID 21941)","reagent":4,"TNF reporter z-score, mean":4.23,"gene median z, three same-vendor siRNAs":-0.0713,"call":"active"}
{"Target gene":"Tnfrsf8 (GeneID 21941)","reagent":5,"TNF reporter z-score, mean":-0.0713,"gene median z, three same-vendor siRNAs":-0.0713,"call":"inactive"}
{"Target gene":"Tnfrsf8 (GeneID 21941)","reagent":6,"TNF reporter z-score, mean":-3.21,"gene median z, three same-vendor siRNAs":-0.0713,"call":"active"}
{"Target gene":"Cetn3 (GeneID 12626)","reagent":1,"TNF reporter z-score, mean":-0.873,"gene median z, three same-vendor siRNAs":-2.89,"call":"inactive"}
{"Target gene":"Cetn3 (GeneID 12626)","reagent":2,"TNF reporter z-score, mean":-2.89,"gene median z, three same-vendor siRNAs":-2.89,"call":"active"}
{"Target gene":"Cetn3 (GeneID 12626)","reagent":3,"TNF reporter z-score, mean":-3.75,"gene median z, three same-vendor siRNAs":-2.89,"call":"active"}
{"Target gene":"Cetn3 (GeneID 12626)","reagent":4,"TNF reporter z-score, mean":2.4,"gene median z, three same-vendor siRNAs":0.694,"call":"active"}
{"Target gene":"Cetn3 (GeneID 12626)","reagent":5,"TNF reporter z-score, mean":2.08,"gene median z, three same-vendor siRNAs":0.694,"call":"active"}
{"Target gene":"Cetn3 (GeneID 12626)","reagent":6,"TNF reporter z-score, mean":-2.78,"gene median z, three same-vendor siRNAs":0.694,"call":"active"}
{"Target gene":"Il1r1 (GeneID 16177)","reagent":1,"TNF reporter z-score, mean":-3.15,"gene median z, three same-vendor siRNAs":-4.18,"call":"active"}
{"Target gene":"Il1r1 (GeneID 16177)","reagent":2,"TNF reporter z-score, mean":-4.31,"gene median z, three same-vendor siRNAs":-4.18,"call":"active"}
{"Target gene":"Il1r1 (GeneID 16177)","reagent":3,"TNF reporter z-score, mean":-4.33,"gene median z, three same-vendor siRNAs":-4.18,"call":"active"}
{"Target gene":"Il1r1 (GeneID 16177)","reagent":4,"TNF reporter z-score, mean":1.63,"gene median z, three same-vendor siRNAs":-1.61,"call":"inactive"}
{"Target gene":"Il1r1 (GeneID 16177)","reagent":5,"TNF reporter z-score, mean":-1.61,"gene median z, three same-vendor siRNAs":-1.61,"call":"inactive"}
{"Target gene":"Il1r1 (GeneID 16177)","reagent":6,"TNF reporter z-score, mean":-3.11,"gene median z, three same-vendor siRNAs":-1.61,"call":"active"}
{"Target gene":"Or1q1 (GeneID 258616)","reagent":1,"TNF reporter z-score, mean":-1.29,"gene median z, three same-vendor siRNAs":-3.03,"call":"inactive"}
{"Target gene":"Or1q1 (GeneID 258616)","reagent":2,"TNF reporter z-score, mean":-2.91,"gene median z, three same-vendor siRNAs":-3.03,"call":"active"}
{"Target gene":"Or1q1 (GeneID 258616)","reagent":3,"TNF reporter z-score, mean":-4.12,"gene median z, three same-vendor siRNAs":-3.03,"call":"active"}
{"Target gene":"Or1q1 (GeneID 258616)","reagent":4,"TNF reporter z-score, mean":0.662,"gene median z, three same-vendor siRNAs":-1.11,"call":"inactive"}
{"Target gene":"Or1q1 (GeneID 258616)","reagent":5,"TNF reporter z-score, mean":-0.64,"gene median z, three same-vendor siRNAs":-1.11,"call":"inactive"}
{"Target gene":"Or1q1 (GeneID 258616)","reagent":6,"TNF reporter z-score, mean":-1.17,"gene median z, three same-vendor siRNAs":-1.11,"call":"inactive"}

Copied from the listing for reference:
{"Target gene":"C730034F03Rik (GeneID 105246016)","reagent":1,"TNF reporter z-score, mean":0.381,"gene median z, three same-vendor siRNAs":-2.43,"call":"inactive"}
{"Target gene":"C730034F03Rik (GeneID 105246016)","reagent":2,"TNF reporter z-score, mean":-3.31,"gene median z, three same-vendor siRNAs":-2.43,"call":"active"}
{"Target gene":"C730034F03Rik (GeneID 105246016)","reagent":3,"TNF reporter z-score, mean":-3.81,"gene median z, three same-vendor siRNAs":-2.43,"call":"active"}
{"Target gene":"C730034F03Rik (GeneID 105246016)","reagent":4,"TNF reporter z-score, mean":4.11,"gene median z, three same-vendor siRNAs":0.642,"call":"active"}
{"Target gene":"C730034F03Rik (GeneID 105246016)","reagent":5,"TNF reporter z-score, mean":1.34,"gene median z, three same-vendor siRNAs":0.642,"call":"inactive"}
